Results on 46 molecules are retold here after PMC6925144, “A prospective compound screening contest identified broader inhibitors for Sirtuin 1” (Scientific Reports, 2019).

Amino acid sequences for entries named in this document (tags omitted). Residues count along the entry.
UniProt Q96EB6, 2-747 limits assumed: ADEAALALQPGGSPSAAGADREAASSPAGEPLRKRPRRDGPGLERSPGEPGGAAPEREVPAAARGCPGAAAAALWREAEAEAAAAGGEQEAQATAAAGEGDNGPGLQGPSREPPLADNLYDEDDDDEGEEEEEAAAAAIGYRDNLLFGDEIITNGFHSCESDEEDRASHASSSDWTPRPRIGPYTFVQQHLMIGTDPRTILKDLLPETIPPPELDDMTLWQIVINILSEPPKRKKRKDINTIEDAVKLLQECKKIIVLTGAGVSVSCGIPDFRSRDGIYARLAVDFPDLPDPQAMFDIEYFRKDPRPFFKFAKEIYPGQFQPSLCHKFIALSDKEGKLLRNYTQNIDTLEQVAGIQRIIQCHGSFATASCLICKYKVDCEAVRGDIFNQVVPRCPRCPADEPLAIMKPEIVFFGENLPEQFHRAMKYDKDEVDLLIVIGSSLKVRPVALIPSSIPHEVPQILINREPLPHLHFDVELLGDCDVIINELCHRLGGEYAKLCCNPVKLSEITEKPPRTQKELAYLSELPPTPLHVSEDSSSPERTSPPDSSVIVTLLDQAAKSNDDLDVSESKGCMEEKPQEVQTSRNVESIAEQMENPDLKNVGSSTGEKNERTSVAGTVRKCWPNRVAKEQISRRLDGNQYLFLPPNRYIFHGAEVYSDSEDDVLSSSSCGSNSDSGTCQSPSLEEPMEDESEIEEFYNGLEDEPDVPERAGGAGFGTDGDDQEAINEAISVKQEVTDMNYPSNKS

Molecules are shown by their SMILES. The full ranking holds about 3,200 compounds; the median of “TSA(with NAD+) / Primary screening (TSA) / delta Tm (K)” is about -0.04, and the highest 2% start at about 0.37. This is one part of the list.

The test deals with NAD-dependent deacetylase Sirtuin 1 (human, UniProt Q96EB6). The test can be described thus: primary screen, delta tm. On the set-up: single well (n = 1, as 'the same TSA'). As to conditions: 10 µM.
Take `O=[N+]([O-])c1ccc(/C=C/Br)o1`: the “TSA(with NAD+) / Primary screening (TSA) / delta Tm (K)” value is recorded as -0.01 K.

As for `Cc1c(-c2ccccc2)sc(NC(=O)C2=COCCO2)c1C(=O)N1CCOCC1`, the “TSA(with NAD+) / Primary screening (TSA) / delta Tm (K)” value is 0.06 K.

As to `CN1C(=O)C(C(=O)c2cn(C)c3ccccc23)C(=O)N(C)C1=O`, the “TSA(with NAD+) / Primary screening (TSA) / delta Tm (K)” value is given as -0.01 K.

Take `Cc1ccc(N(C)S(=O)(=O)c2cccc(C(=O)OCc3cc(=O)oc4cc(C)ccc34)c2)cc1`: the “TSA(with NAD+) / Primary screening (TSA) / delta Tm (K)” value was 0.06 K.

On to `COC(C)C(=O)O` (stereo not shown), for which the “TSA(with NAD+) / Primary screening (TSA) / delta Tm (K)” value is -0.03 K.

Regarding `CCOc1ccc(NC(=O)CN(C)C(=O)/C=C/c2ccc(S(=O)(=O)N3CCCCCC3)cc2)cc1OCC`, the “TSA(with NAD+) / Primary screening (TSA) / delta Tm (K)” value is listed as -0.03 K.

On to `Oc1cccc2c1Cc1c-2nc2ccc(Cl)cc2c1-c1ccccc1Cl`, for which the “TSA(with NAD+) / Primary screening (TSA) / delta Tm (K)” value came out at 0.52 K.

Regarding `O=C(OCc1cc(Cl)ccn1)c1ccc2[nH]c(C(F)F)nc2c1`, the “TSA(with NAD+) / Primary screening (TSA) / delta Tm (K)” value is recorded as -0.03 K.

For `COc1ccccc1NC(=O)c1ccc(NC(=O)COC(=O)C23CC4CC(CC(C4)C2)C3)cc1`, the “TSA(with NAD+) / Primary screening (TSA) / delta Tm (K)” value worked out at 0.39 K.

For `COC(=O)NC1(C(=O)Nc2cnc3ccccc3n2)CCCC1`, the “TSA(with NAD+) / Primary screening (TSA) / delta Tm (K)” value was -0.14 K.

Regarding `NC(=O)C1CCCN1C1CCN(c2ccnc3c(F)cccc23)CC1` (stereo not shown), the “TSA(with NAD+) / Primary screening (TSA) / delta Tm (K)” value was -0.05 K.

Turning to `CC1Cc2ccccc2N1C(=O)c1ccc(Cl)nc1Cl` (stereo not shown), the “TSA(with NAD+) / Primary screening (TSA) / delta Tm (K)” value was -0.09 K.

Turning to `O=[N+]([O-])c1ccc(CSc2nnc(-c3c[nH]c4ccccc34)n2-c2ccc(Cl)cc2)cc1`, the “TSA(with NAD+) / Primary screening (TSA) / delta Tm (K)” value is 0.03 K.

In the case of `Cc1cccc(NC=C2C(=O)NC(=S)NC2=O)n1`, the “TSA(with NAD+) / Primary screening (TSA) / delta Tm (K)” value is on record as -0.13 K.

On to `O=C(CCCNC(=O)c1cccs1)NNC(=O)COc1ccccc1-c1ccccc1`, for which the “TSA(with NAD+) / Primary screening (TSA) / delta Tm (K)” value was -0.09 K.

As for `O=C(NCc1cccnc1N1CCOCC1)C1=COCCO1`, the “TSA(with NAD+) / Primary screening (TSA) / delta Tm (K)” value was -0.12 K.

In the case of `CCn1cc(CC(=O)N2CCC(CN3CCCC3)C2)c2ccccc21` (stereo not shown), the “TSA(with NAD+) / Primary screening (TSA) / delta Tm (K)” value was -0.06 K.

With `CCCOc1ccc(C(=O)C2=C(O)C(=O)N(CCN3CCOCC3)C2c2ccc([N+](=O)[O-])cc2)cc1` (stereo not shown), the “TSA(with NAD+) / Primary screening (TSA) / delta Tm (K)” value is given as -0.13 K.

In the case of `CCCNC(=O)CSc1nnc(-c2c[nH]c3ccccc23)n1Cc1ccco1`, the “TSA(with NAD+) / Primary screening (TSA) / delta Tm (K)” value turned out to be 0.05 K.

As to `COc1ccc(N(C)S(=O)(=O)c2cccc(C(=O)Nc3ccc(Br)cc3F)c2)cc1`, the “TSA(with NAD+) / Primary screening (TSA) / delta Tm (K)” value was found to be 0.36 K.

For the molecule `O=C(O)c1ccc2c(=O)n3c(nc2c1)/C(=C\c1cccc(O)c1)CC3`, the “TSA(with NAD+) / Primary screening (TSA) / delta Tm (K)” value is 0.05 K.

Regarding `CC(C)c1ccc2c(c1)CCCN2C(=O)CCn1cnc2ccccc2c1=O`, the “TSA(with NAD+) / Primary screening (TSA) / delta Tm (K)” value is -0.11 K.

In the case of `COc1cc(C=C2C(=O)NC(=S)NC2=O)cc(Br)c1OC`, the “TSA(with NAD+) / Primary screening (TSA) / delta Tm (K)” value was -0.11 K.

Turning to `CCC(N)CC`, the “TSA(with NAD+) / Primary screening (TSA) / delta Tm (K)” value was -0.11 K.

With `CCCCN(C(=O)c1cccc(S(=O)(=O)N(C)c2ccc(C)cc2)c1)c1c(N)n(CC(C)C)c(=O)[nH]c1=O`, the “TSA(with NAD+) / Primary screening (TSA) / delta Tm (K)” value is -0.14 K.

With `CC1(c2cccc(N)c2)NC(=O)NC1=O` (stereo not shown), the “TSA(with NAD+) / Primary screening (TSA) / delta Tm (K)” value amounted to 0.02 K.

As to `Cn1c(SCc2ccc(F)cc2)nc2ccsc2c1=O`, the “TSA(with NAD+) / Primary screening (TSA) / delta Tm (K)” value was -0.23 K.

Turning to `CC1CCc2sc(C(=O)Nc3ccccc3Cc3ccccc3)cc2C1` (stereo not shown), the “TSA(with NAD+) / Primary screening (TSA) / delta Tm (K)” value is -0.13 K.

`Cc1ccc(-c2n[nH]cc2CNCc2ccc(CN(C)C)cc2)cc1`: the “TSA(with NAD+) / Primary screening (TSA) / delta Tm (K)” value is on record as -0.08 K.

On to `NC(=O)c1cc(NCC(=O)Nc2ccccc2Cl)c(F)cc1F`, for which the “TSA(with NAD+) / Primary screening (TSA) / delta Tm (K)” value was -0.08 K.

As to `c1ccc(-c2nc(CN3CCN(c4ncnc5sc6c(c45)CCCC6)CC3)cs2)cc1`, the “TSA(with NAD+) / Primary screening (TSA) / delta Tm (K)” value is 0.06 K.

Consider `CCNCCOCCN`, for which the “TSA(with NAD+) / Primary screening (TSA) / delta Tm (K)” value is on record as -0.24 K.

On to `Cc1c(O)ccc2c(CN3CCCC3c3ccc[nH]3)cc(=O)oc12` (stereo not shown), for which the “TSA(with NAD+) / Primary screening (TSA) / delta Tm (K)” value was determined as 0.09 K.

In the case of `Cc1cc(C#N)ccc1S(=O)(=O)N1CC[C@H](N)C1`, the “TSA(with NAD+) / Primary screening (TSA) / delta Tm (K)” value is recorded as -0.05 K.

Regarding `CCOCc1c(C(=O)Nc2ccc(N3CCN(Cc4ccccc4)CC3)cc2)oc2ccccc12`, the “TSA(with NAD+) / Primary screening (TSA) / delta Tm (K)” value is reported as 0.06 K.

For `COc1ccc(-c2csc3nc(C)nc(N4CCN(CC(=O)NC5CC5)CC4)c23)cc1OC`, the “TSA(with NAD+) / Primary screening (TSA) / delta Tm (K)” value is given as 0.06 K.

Consider `Cc1ccccc1SCC(=O)NC1CCCCNC1=O` (stereo not shown), for which the “TSA(with NAD+) / Primary screening (TSA) / delta Tm (K)” value was -0.08 K.

Turning to `O=C(CSc1nc2ccccc2o1)N(Cc1ccccc1)c1nc2c(s1)CCCC2`, the “TSA(with NAD+) / Primary screening (TSA) / delta Tm (K)” value is listed as 0.16 K.

Regarding `CC(C(=O)Nc1ccc(C(N)=O)cc1)N1CCN(CCOc2ccccc2)CC1` (stereo not shown), the “TSA(with NAD+) / Primary screening (TSA) / delta Tm (K)” value is recorded as -0.23 K.

Consider `Cc1no[n+]([O-])c1COc1cccc(C=C2C(=O)NC(=S)NC2=O)c1`, for which the “TSA(with NAD+) / Primary screening (TSA) / delta Tm (K)” value is recorded as -0.04 K.

With `CCc1ccc(CNC(=O)N2CCOC(C)(c3cnn(C)c3)C2)cc1` (stereo not shown), the “TSA(with NAD+) / Primary screening (TSA) / delta Tm (K)” value is on record as -0.01 K.

`O=c1cc(CSc2ncc(C(F)(F)F)cc2Cl)nc2ccccn12`: the “TSA(with NAD+) / Primary screening (TSA) / delta Tm (K)” value is reported as -0.23 K.

In the case of `CC(Oc1ccc(-c2nc3ccccc3s2)cc1)C(=O)NCc1ccco1` (stereo not shown), the “TSA(with NAD+) / Primary screening (TSA) / delta Tm (K)” value was -0.16 K.

On to `O=C(O)CCCc1ccc2c(c1)-c1ccccc1C2`, for which the “TSA(with NAD+) / Primary screening (TSA) / delta Tm (K)” value is 0.06 K.

Turning to `Cc1nc(-n2ccnc2)c2cnn(-c3cccc(Cl)c3)c2n1`, the “TSA(with NAD+) / Primary screening (TSA) / delta Tm (K)” value is -0.11 K.

Regarding `NC(=O)c1cc(NC(=O)c2ccc(NC(=O)NC3CC3)cc2)ccc1F`, the “TSA(with NAD+) / Primary screening (TSA) / delta Tm (K)” value is recorded as -0.01 K.
